Screen size: about 340,000 compounds; about 6,200 (1.8%) were called active. The inconclusive results got no clear call from the source; some entries with a clear call stand among them for comparison. The call rests on the fitted dose curve; in most records, active means well fitted activation curve with a large enough effect; inconclusive means small, poorly fitted or top-dose-only effect; inactive means no such curve, though single readings can be large or run the other way. Where the call is inconclusive, the potency comes from a doubtful curve fit.
Assay: A quantitative high throughput screen for small molecules that induce DNA re-replication in SW480 colon adenocarcinoma cells. Further: nearly all actives have a fitted effect of over 55% in size. On re-replication activation: % of control where 0% means no effect.
Settings: Hoechst DNA content imaging, 48 h; re-replication activation: at 46.1 µM (top of the series) unless noted
Method in brief: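 Image-based read-out: total Hoechst fluorescence of nuclei (405 nm excitation, 500-530 nm emission), with hits raising the fraction of high-intensity nuclei. SW480 colon cells incubated 48 hr with compounds at 37 C.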
For `CC(C)=CCN1CCN(C/C(Cl)=C/c2ccccc2)CC1CCO` (configuration not stated), the “re-replication activation” value was inactive: -1.46%. For `N#Cc1nc(COc2ccccc2)oc1N1CCC(Cc2ccccc2)CC1`, the “re-replication activation” value was inactive: 13.5%. In the case of `COc1cc(NC(=O)COc2ccccc2)c(OC)cc1NC(C)=O`, the “re-replication activation” value was inactive: -56.1%. For `Cc1c(/C=C/C(=O)c2cccs2)cnn1C`, the Potency was inconclusive: 29.1 µM [activator, single point]. With `C=CCNC(=O)/C(C#N)=C/c1c(C)nn(-c2ccc(Cl)cc2)c1Cl` the Potency was inconclusive: 29.1 µM [activator, single point]. In the case of `O=C(NC(=O)N1CCN(c2ccc([N+](=O)[O-])cn2)CC1)c1c(Cl)cccc1Cl`, the “re-replication activation” value was inactive: -3.48%. For `Nc1ccncc1N`, the Potency was inconclusive: 0.0065 µM [activator, full curve, poor fit]. For `COc1ccc(C2CC(C)(c3ccc(OC)cc3)Nc3ccccc3N2)cc1` (configuration not stated), the Potency was inconclusive: 29.1 µM [activator, single point]. For `CN=c1scc(-c2ccccc2F)n1/N=C/c1ccc(O)c(O)c1O`, the Potency was inconclusive: 29.1 µM [activator, partial curve, poor fit]. With `COC(=O)[C@H]1[C@H]2C[C@@H]3c4[nH]c5ccccc5c4CCN3C[C@H]2C[C@@H](OC(=O)c2cc(OC)c(OC)c(OC)c2)[C@@H]1OC` the Potency was inconclusive: 3.35 µM [activator, full curve]. With `O=C(CCN1CCN(Cc2ccccc2)CC1)Nc1cccc(Br)c1` the “re-replication activation” value was inactive: -2.24%. With `Cc1c(C(=O)NNC(=O)c2ccccc2O)oc2ccc(Br)cc12` the Potency was inconclusive: 35.5 µM [activator, single point]. For `Cc1ccc(C2C3=C(CC(C)(C)CC3=O)Nc3onc(C)c32)cc1` (configuration not stated), the “re-replication activation” value was inactive: -5.94%. For `Fc1ccccc1Sc1ccccc1CNC1=NCCN1`, the Potency was inconclusive: 0.0046 µM [activator, full curve, poor fit]. For `CC(=O)Nc1cccc2cc(O)ccc12`, the “re-replication activation” value was inactive: 0.579%. For `O=[N+]([O-])c1cc(C(F)(F)F)cc([N+](=O)[O-])c1Sc1n[nH]c(C(F)(F)F)n1`, the Potency was inconclusive: 29.1 µM [activator, single point]. With `COc1ccc(C(=O)Nc2ccc(NC(=O)c3cccc(OC)c3)cn2)cc1` the “re-replication activation” value was inactive: 7.16%. For `O=C(c1ccc(N2C(=O)C3C4CC(C(Br)C4Br)C3C2=O)cc1)N1CCCCC1` (configuration not stated), the Potency was inconclusive: 18.4 µM [activator, partial curve, poor fit]. In the case of `CCN(CC1CCCN(CCc2cccc(F)c2)C1)C(=O)c1cc2ccccc2o1` (configuration not stated), the Potency was inconclusive: 29.1 µM [activator, single point]. In the case of `NS(=O)(=O)c1ccc(CCNC(=O)CN2C(=O)COc3ccc(S(=O)(=O)N4CCCC4)cc32)cc1`, the Potency was inconclusive: 1.64 µM [activator, partial curve, poor fit]. With `CCOc1ccc(NC(=O)CN(C)C(=O)Cn2cnc3c2c(=O)n(C)c(=O)n3C)cc1OCC` the “re-replication activation” value was inactive: -5%. With `Cc1nc(SCC(=O)N2CCNC2=O)c2ccccc2n1` the Potency was inconclusive: 16.4 µM [activator, single point]. With `COc1ccc(NC(=O)c2cccc(-c3ccc(O)cc3)c2)cn1` the Potency was inconclusive: 29.1 µM [activator, single point]. In the case of `O=C(COc1ccccc1)N1CCN(S(=O)(=O)c2cccs2)CC1`, the Potency was inconclusive: 20.6 µM [activator, single point]. With `CN(C(=O)C1CCOC1)c1nnc(-c2ccccn2)s1` (configuration not stated) the Potency was inconclusive: 3.55 µM [activator, partial curve, poor fit]. With `COc1ccc(N(CC(=O)N2CCN(c3cccc(Cl)c3)CC2)S(=O)(=O)c2c(C)noc2C)cc1` the “re-replication activation” value was inactive: -12%. With `O=C(CCCN1C(=O)C(c2ccccc2)Oc2cccnc21)NCc1ccc(F)cc1` (configuration not stated) the Potency was inconclusive: 0.0046 µM [activator, full curve, poor fit]. With `COCCn1c(SCC(=O)c2ccc(F)cc2)nnc1C(C)C` the Potency was inconclusive: 20.6 µM [activator, single point]. In the case of `Cc1ccc(NC(=O)c2ccccc2NS(=O)(=O)c2ccc(F)cc2)cc1S(=O)(=O)N1CCCCC1`, the Potency was inconclusive: 7.31 µM [activator, partial curve, poor fit]. With `Cc1ccc(Nc2nc(-c3ccc(O)c(O)c3)cs2)nc1` the Potency was inconclusive: 18.4 µM [activator, single point]. For `CCOc1ccc(OCC)c(-c2c(=O)n(OCc3ccc(C(C)(C)C)cc3)c3ccccc3[n+]2[O-])c1`, the Potency was inconclusive: 4.61 µM [activator, partial curve, poor fit]. For `COC(=O)c1cc(C(=O)c2cc(F)ccc2O)cn2c(=O)c3c(C)c(C)sc3nc12`, the Potency was inconclusive: 2.91 µM [activator, full curve, poor fit]. With `CC(C)(C)c1ccc(CN2C(=O)c3ccccc3S2(=O)=O)cc1` the Potency was inconclusive: 29.1 µM [activator, single point]. For `COc1ccc(NC(=O)CC2C(=O)N(CCc3ccccc3)C(=S)N2Cc2cccnc2)cc1` (configuration not stated), the Potency was inconclusive: 29.1 µM [activator, single point]. For `O=C(COC(=O)c1ccc(O)cc1)NC1CCCCCC1`, the “re-replication activation” value was inactive: -3.67%. For `O=C(/C=C/c1ccco1)NC(=S)Nc1ccc(N2CCOCC2)c(Cl)c1`, the Potency was active: 5.17 µM. For `O=C(Cn1ncc(Cl)c(Cl)c1=O)NC(=O)NC1CCCCC1`, the Potency was active: 13 µM. With `Cc1cccc(CN2CCN(Cc3cnn(-c4ccccc4F)c3)CC2CCO)n1` (configuration not stated) the Potency was inconclusive: 6.51 µM [activator, single point]. With `COc1ccc([N+](=O)[O-])cc1NC(=O)Nc1ccc(OC)c(OC)c1` the “re-replication activation” value was inactive: -1.04%. In the case of `O=C(NCc1ccccn1)c1cc(-c2ccc(-c3ccccc3)cc2)nc2ccccc12`, the “re-replication activation” value was inactive: -132%. In the case of `CCOC(=O)c1cnc2c(ccc3ccccc32)c1NCCN(C)C`, the “re-replication activation” value was inactive: 16%. For `COCC(=O)n1nc(-c2ccc(Cl)cc2)nc1NCc1ccc(F)cc1`, the Potency was inconclusive: 18.4 µM [activator, single point]. For `CC(=O)NCC(=O)N1CCCC(C(=O)c2ccc(-c3ccccc3)c(F)c2)C1` (configuration not stated), the “re-replication activation” value was inactive: -1.49%. In the case of `Cc1ccc(-c2noc(CN(C(=O)c3cccs3)C(C)C)n2)cc1`, the Potency was inconclusive: 20.6 µM [activator, single point]. With `CCn1c(SCC(=O)Nc2cc(C)on2)nnc1-c1c[nH]c2ccccc12` the “re-replication activation” value was inactive: -0.434%. With `Cc1ccc(C(=O)N/N=C\c2ccc([N+](=O)[O-])s2)cn1` the Potency was inconclusive: 20.6 µM [activator, partial curve, poor fit]. For `NC(=S)N/N=C/c1ccc(OC(=O)c2cccnc2)cc1`, the Potency was inconclusive: 2.06 µM [activator, partial curve, poor fit]. In the case of `CCC(C)n1c(SCC(=O)Nc2cc(C(C)(C)C)nn2-c2ccccc2)nc2ccccc2c1=O` (configuration not stated), the Potency was inconclusive: 16.4 µM [activator, single point]. With `O=C(NNc1c(Cl)cccc1Cl)c1cccs1` the “re-replication activation” value was inactive: -14.4%. For `CCCCCOc1ccc(C(=O)OC(C)C(=O)NCc2ccco2)cc1` (configuration not stated), the Potency was inconclusive: 1.84 µM [activator, partial curve, poor fit]. With `COc1ccc(Cc2nnc(NC(=O)C3CC(=O)N(c4ccccc4C)C3)s2)cc1OC` (configuration not stated) the “re-replication activation” value was inactive: 2.88%. With `CC(=O)Oc1ccc(C(=O)Nc2ccc(C3(C#N)CCCC3)cc2)cc1` the “re-replication activation” value was inactive: -5.55%. In the case of `Cc1ccc(S(=O)(=O)N2CCN(CC(=O)NC3CCCc4ccccc43)CC2)cc1C` (configuration not stated), the Potency was inconclusive: 18.4 µM [activator, single point]. In the case of `Cc1ccc(S(=O)(=O)CCC(=O)c2ccc(F)cc2)cc1`, the Potency was inconclusive: 20.6 µM [activator, single point]. For `COc1ccc(C2CC(=O)c3cnc(NC(=O)c4ccccc4)nc3C2)c(OC)c1` (configuration not stated), the Potency was inconclusive: 29.1 µM [activator, single point]. For `COc1nc(N/N=C/c2ccccc2F)nc(N2CCCCC2)n1`, the “re-replication activation” value was inactive: -1.18%. In the case of `O=C(CCc1nc2ccccc2c(=O)[nH]1)NCc1ccco1`, the Potency was inconclusive: 29.1 µM [activator, single point]. With `CC(C)N1CCc2c(sc(NC(=O)CCS(=O)(=O)c3ccccc3)c2C(N)=O)C1` the Potency was inconclusive: 25.9 µM [activator, single point]. In the case of `C[C@@H]1CCC2[C@@H](C)[C@@H](O)O[C@@H]3O[C@@]4(C)CC[C@@H]1[C@@]23OO4` (some centres not stated), the Potency was inconclusive: 33.5 µM [activator, partial curve, poor fit]. For `COc1cc(C(=O)NCc2nc(C)cs2)ccc1OC1CCN(C(C)=O)CC1`, the “re-replication activation” value was inactive: -2.81%. For `Cc1ccc(S(=O)(=O)NCc2ccncc2)cc1`, the Potency was inconclusive: 0.0146 µM [activator, full curve, poor fit]. For `COc1ccc(Br)cc1/C=N/Nc1ccccn1`, the Potency was inconclusive: 14.6 µM [activator, single point]. For `C=CCN1CCc2c(cc(O)c(O)c2Cl)C(c2ccccc2)C1` (configuration not stated), the Potency was inconclusive: 16.4 µM [activator, single point]. In the case of `CCCN1CCN(CCCNC(=O)c2cc3c(s2)-c2c(C)cccc2OC3)CC1`, the Potency was inconclusive: 18.4 µM [activator, partial curve, poor fit]. In the case of `COc1cccc(N/C(SCc2cccc([N+](=O)[O-])c2)=C(/C#N)C(N)=O)c1`, the Potency was inconclusive: 29.1 µM [activator, single point]. With `Cc1ccccc1OCCC(=O)Nc1ccc(Cl)cc1F` the Potency was inconclusive: 32.6 µM [activator, partial curve, poor fit]. In the case of `COc1cc(C2=NOC(C(=O)NCc3ccccn3)C2)cc(OC)c1OC` (configuration not stated), the “re-replication activation” value was inactive: 1.29%. In the case of `CC(=O)OC1CCC2(C)C3CCC4(C)C(C(C)=O)CCC4C3CC3OC32C1` (configuration not stated), the Potency was inconclusive: 20.6 µM [activator, single point]. With `O=C(NCc1cn(-c2ccccc2)nc1-c1ccccc1)c1cccc([N+](=O)[O-])c1` the Potency was inconclusive: 29.1 µM [activator, single point]. In the case of `O=C(OCC(=O)N(C1CCCCC1)C1CCCCC1)c1ccc(Cl)nc1`, the “re-replication activation” value was inactive: 6.95%. In the case of `COc1ccccc1CCNC(=O)c1cc(-c2ccncc2)nc2ccc(Br)cc12`, the Potency was inconclusive: 20.6 µM [activator, single point]. For `COc1ccc(C(c2nnnn2C2CCCCC2)N2CCN(c3ccc(OC)cc3)CC2)cc1` (configuration not stated), the Potency was inconclusive: 18.4 µM [activator, partial curve, poor fit].

Source: PubChem BioAssay AID624297 (National Center for Advancing Translational Sciences (NCATS), 2012)
Potency means the concentration at half of the fitted maximal effect.
